In patent US7105520B2, “Phenylalanine derivatives” (Ajinomoto Co., Inc., priority 2000, dated 2006) one finds IC50 data, which are given here for 4 molecules.

Amino acid sequences for entries named in this document (tags omitted). Residues count along the entry.
UniProt P05556, 21-798 limits assumed: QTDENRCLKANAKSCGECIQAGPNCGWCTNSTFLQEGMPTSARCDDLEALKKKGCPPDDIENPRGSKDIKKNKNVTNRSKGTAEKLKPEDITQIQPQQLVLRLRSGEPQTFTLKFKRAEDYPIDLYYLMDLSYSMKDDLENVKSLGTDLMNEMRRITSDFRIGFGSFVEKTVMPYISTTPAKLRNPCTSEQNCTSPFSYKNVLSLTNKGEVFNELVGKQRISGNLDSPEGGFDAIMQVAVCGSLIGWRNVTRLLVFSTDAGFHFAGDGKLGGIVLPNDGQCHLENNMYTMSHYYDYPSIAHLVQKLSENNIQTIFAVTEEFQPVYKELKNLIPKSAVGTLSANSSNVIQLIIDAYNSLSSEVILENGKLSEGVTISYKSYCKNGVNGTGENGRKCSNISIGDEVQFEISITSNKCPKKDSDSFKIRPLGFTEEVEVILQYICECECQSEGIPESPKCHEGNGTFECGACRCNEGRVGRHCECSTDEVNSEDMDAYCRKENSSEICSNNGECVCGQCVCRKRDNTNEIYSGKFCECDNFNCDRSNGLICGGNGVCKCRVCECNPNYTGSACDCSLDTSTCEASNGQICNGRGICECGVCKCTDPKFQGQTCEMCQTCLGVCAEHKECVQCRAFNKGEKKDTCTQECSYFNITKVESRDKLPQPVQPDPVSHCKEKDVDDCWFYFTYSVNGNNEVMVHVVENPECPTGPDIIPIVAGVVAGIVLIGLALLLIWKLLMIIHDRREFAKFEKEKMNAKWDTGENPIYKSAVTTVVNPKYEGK
UniProt P13612, 34-1032 limits assumed: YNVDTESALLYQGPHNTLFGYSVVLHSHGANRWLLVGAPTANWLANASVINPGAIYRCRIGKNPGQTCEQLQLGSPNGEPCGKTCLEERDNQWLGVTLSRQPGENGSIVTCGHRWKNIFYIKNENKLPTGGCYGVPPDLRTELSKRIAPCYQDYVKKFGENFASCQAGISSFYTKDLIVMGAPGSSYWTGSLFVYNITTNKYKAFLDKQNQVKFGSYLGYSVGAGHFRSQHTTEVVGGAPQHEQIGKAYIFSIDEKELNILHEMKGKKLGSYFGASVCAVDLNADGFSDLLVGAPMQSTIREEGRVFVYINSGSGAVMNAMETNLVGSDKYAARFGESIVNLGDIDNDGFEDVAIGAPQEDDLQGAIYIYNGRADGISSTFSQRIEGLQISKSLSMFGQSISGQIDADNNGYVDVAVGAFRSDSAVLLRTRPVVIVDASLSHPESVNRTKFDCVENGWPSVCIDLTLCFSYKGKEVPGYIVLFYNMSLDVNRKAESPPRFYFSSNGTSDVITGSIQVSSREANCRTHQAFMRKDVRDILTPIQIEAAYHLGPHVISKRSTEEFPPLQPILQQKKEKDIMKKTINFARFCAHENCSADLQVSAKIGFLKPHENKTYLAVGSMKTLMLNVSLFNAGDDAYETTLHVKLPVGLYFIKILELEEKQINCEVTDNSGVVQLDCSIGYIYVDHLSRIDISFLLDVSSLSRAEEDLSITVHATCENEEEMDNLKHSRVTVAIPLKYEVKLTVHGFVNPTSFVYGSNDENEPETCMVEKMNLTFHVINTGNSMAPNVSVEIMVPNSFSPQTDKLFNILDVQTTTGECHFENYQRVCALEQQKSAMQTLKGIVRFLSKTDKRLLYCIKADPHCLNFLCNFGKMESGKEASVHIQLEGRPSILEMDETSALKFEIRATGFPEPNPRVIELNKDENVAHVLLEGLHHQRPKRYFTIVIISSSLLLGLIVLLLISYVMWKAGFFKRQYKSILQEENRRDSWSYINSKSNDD
UniProt P26010, 20-798 limits assumed: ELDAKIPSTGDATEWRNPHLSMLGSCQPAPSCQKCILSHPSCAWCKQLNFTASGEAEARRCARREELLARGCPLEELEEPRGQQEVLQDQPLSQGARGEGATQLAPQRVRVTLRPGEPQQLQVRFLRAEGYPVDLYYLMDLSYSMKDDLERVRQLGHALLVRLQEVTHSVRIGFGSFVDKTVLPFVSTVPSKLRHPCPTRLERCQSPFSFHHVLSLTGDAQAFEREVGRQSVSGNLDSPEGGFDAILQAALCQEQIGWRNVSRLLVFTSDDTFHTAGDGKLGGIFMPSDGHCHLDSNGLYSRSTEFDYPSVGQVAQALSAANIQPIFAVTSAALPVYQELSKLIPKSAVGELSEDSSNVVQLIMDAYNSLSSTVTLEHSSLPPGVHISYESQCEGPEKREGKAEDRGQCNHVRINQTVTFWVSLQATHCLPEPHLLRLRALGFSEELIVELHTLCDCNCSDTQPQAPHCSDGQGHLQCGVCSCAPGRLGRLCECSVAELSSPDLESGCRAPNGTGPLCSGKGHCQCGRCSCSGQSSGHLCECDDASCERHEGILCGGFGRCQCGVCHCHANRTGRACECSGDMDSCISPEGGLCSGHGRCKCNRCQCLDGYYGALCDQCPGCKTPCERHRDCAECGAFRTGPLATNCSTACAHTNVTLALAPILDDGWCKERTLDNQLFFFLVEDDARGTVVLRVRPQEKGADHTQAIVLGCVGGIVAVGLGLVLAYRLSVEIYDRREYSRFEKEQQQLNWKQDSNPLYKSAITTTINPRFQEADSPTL

The match of structure and compound is tentative.

In test [1] the target is integrin α 4β1 (Homo sapiens, UniProt P05556+P13612). Description: VCAM antagonistic activity (VCAM-1/α4β1 binding assay), Jurkat cells binding to VCAM-1. The conditions noted are these: read-out: VCAM-1/α 4 β 1 linking antagonization activity IC50; Jurkat cells (human T cells) binding to recombinant human VCAM-1; room temperature, 30 minutes. The method, then: (Test Example) VCAM Antagonistic Activity (VCAM-1/α4β1 Binding Assay):
The capacity of a test substance antagonistic to the binding of cell strain Jurkat (ATCC TIB-152) of human T cells, known to express integrin α 4β1, to VCAM-1 was determined.
(§1) 100 μl/well of a solution (500 ng/ml) of recombinant human VCAM-1 (R & D systems) solution diluted with buffer A (0.1 M NaHCO3, pH 9.6) was added to a micro titer plate having 96 wells (Nunc Maxisorp). After the incubation at 4° C. overnight, unbound VCAM-1 was removed by washing once with PBS. After completion of the washing, a buffer (buffer B) obtained by diluting Block Ace® (Dainippon Pharmaceutical Co., Ltd.) with PBS to ¼ concentration was added in an amount of 150 μl/well. After the incubation at room temperature for 1 hour, buffer B was removed and the plate was washed with PBS once.
Jurkat cells were washed with Dulbecco modified Eagle medium (SIGMA, hereinafter referred to as “DMEM”) twice and then incubated in DMEM containing 10 μg/ml of Calcein-AM (Wako Pure Chemical Industries, Ltd.) at 37° C. in dark place for 30 minutes to label with fluorescence. The cells were again suspended in a binding buffer (20 mM HEPES, DMEM containing 0.1% BSA).
(§2) 50 μl of a test substance of various concentrations obtained by the dilution with the binding buffer was added to the plate. Immediately thereafter, 50 μl (final volume: 100 μl/well) of the fluorescent Jurkat cells (4×10^6 cells/ml) were added thereto, and they were incubated at room temperature for 30 minutes. After the shaking on a plate shaker (IKA MTS-4) at 800 rpm for 30 seconds, the solution was immediately removed to remove the unbound cells. The fluorescence quantity of the bound cells remaining in the wells was determined with a fluorescent plate reader (Wallac 1420 ARVO multi-label counter) (filter excitation wave length: 485 nm, emission wave length: 535 nm). The fluorescent strength thus obtained is proportional to the number of Jurkat cells bound to VCAM-1 and remaining on the plate. The binding rate of each test material in various concentrations was determined while the fluorescent strength of the test material-free well was determined to be 100%. The concentration IC50 for the 50% binding inhibition was calculated.

Test [2] has as its target integrin α 4β7 (Homo sapiens, UniProt P13612+P26010). Put plainly: VCAM antagonistic activity (VCAM-1/α4β7 binding assay), RPMI-8866 cells binding to VCAM-1. Conditions: read-out: VCAM-1/α 4 β 7 linking antagonization activity IC50; RPMI-8866 cells (human B cells) binding to recombinant human VCAM-1; binding buffer containing 4 mM of MnCl2; room temperature, 30 minutes. The procedure: (Test Example) VCAM Antagonistic Activity (VCAM-1/α4β7 Binding Assay):
The capacity of a test substance antagonistic to the binding of lymphoma cell strain RPMI-8866 of human B cells, known to express integrin α 4β7, to VCAM-1 was determined.
as §1
RPMI-8866 cells were incubated in DMEM containing 10 μg/ml of Calcein-AM (Wako Pure Chemical Industries, Ltd.) at 37° C. for 30 minutes to label with fluorescence. The cells were again suspended in a binding buffer (20 mM HEPES, DMEM containing 0.1% BSA) containing 4 mM of MnCl2.
as §2, with “RPMI-8866” for “Jurkat”

In the case of `CC(C)N(c1ccc([N+](=O)[O-])c(C(=O)NC(Cc2ccc(OCc3c(Cl)cccc3Cl)cc2)C(=O)O)c1)C(C)C` (centres unmarked), the IC50 in test [1] worked out at 9300 nM; in test [2], 890 nM.
As to `CCN(CCCCO)c1ccc([N+](=O)[O-])c(C(=O)NC(Cc2ccc(OCc3c(Cl)cccc3Cl)cc2)C(=O)O)c1` (centres unmarked), the IC50 in test [1] amounted to 3200 nM; in test [2] it was 110 nM.
On to `O=C(NC(Cc1ccc(OCc2c(Cl)cccc2Cl)cc1)C(=O)O)c1cc(N2CCCCC2CO)ccc1[N+](=O)[O-]` (centres unmarked), for which the IC50 was found to be 1900 nM in test [1] and 300 nM in test [2].
Take `O=C(NC(Cc1ccc(OCc2c(Cl)cccc2Cl)cc1)C(=O)O)c1cc(N2CCCC(O)C2)ccc1[N+](=O)[O-]` (centres unmarked): the IC50 is 2100 nM in test [1] and 240 nM in test [2].
